PubChem BioAssay AID504808, Drosophila RNAi Screening Center – 2011

Screen: 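Genes whose loss lifts activity of an E2F-responsive reporter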 (primary screen)
Cells: Drosophila S2 cells
Reagent: long dsRNA against Drosophila genes
Detection: 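Dual luciferase plate measurements; E2F-specific signal taken as firefly over Renilla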
Reading the numbers: E2F firefly: higher = more E2F reporter activity; Renilla normaliser: higher = more normaliser reporter signal
Call rule: 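Called active if the normalised E2F reporter went up by over 50%; the cutoff is arbitrary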
The deposit covers about 21,000 reagents; this is a random part of those with a known target gene and a result. Of all reagents, 18 (0.084%) are marked active. 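Raw counts without plate normalisation, one of two replicates; the ratio scores behind the calls were not deposited.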 A plus sign joins genes that one reagent is predicted to hit. The record does not give: the amount of reagent, the time to read-out.

target,DRSC id,"E2F firefly, rep 1","Renilla normaliser, rep 1",Call
zfh2 (Zn finger homeodomain 2),DRSC17178,2003,936,inactive
rswl (roswell),DRSC06923,60042,3257,inactive
fog (folded gastrulation),DRSC20646,1.73e5,5601,inactive
CG8833,DRSC11050,78525,3711,inactive
CG30095,DRSC07175,1.55e5,5065,inactive
abd-A (abdominal A),DRSC13179,72124,2557,inactive
abd-A (abdominal A),DRSC16897,46108,3670,inactive
PolH (DNA polymerase eta),DRSC11800,85773,3315,inactive
CG34265,DRSC08030,1.48e5,4664,inactive
CG42382,DRSC07671,1.43e5,4792,inactive
CG18788,DRSC02697,92530,4031,inactive
CG5157,DRSC10488,1.50e5,8774,inactive
CG12009,DRSC08217,73041,4194,inactive
CG11674,DRSC19414,7862,848,inactive
CG1324,DRSC20496,1.62e5,5294,inactive
CG6659,DRSC20003,1.74e5,5283,inactive
Poc1 (Proteome of centrioles 1),DRSC09713,81201,3928,inactive
CG8569,DRSC07214,2751,208,inactive
Ufd4 (Ubiquitin fusion-degradation 4-like),DRSC02871,1.51e5,5469,inactive
CG30050,DRSC05342,1.26e5,4691,inactive
Lcp65Ac,DRSC11210,1.03e5,3943,inactive
CG15172,DRSC02473,1.01e5,4190,inactive
hmw (hemingway),DRSC16277,71363,3159,inactive
CG18268 + CG3014,DRSC15319,1.33e5,6074,inactive
Pgam5 (Phosphoglycerate mutase 5),DRSC18551,1756,988,inactive
Syx16 (Syntaxin 16),DRSC20507,1.58e5,5536,inactive
CG7251,DRSC03039,91595,3661,inactive
CG32726,DRSC17521,82163,2419,inactive
Fatp3 (Fatty acid transport protein 3),DRSC04366,98960,4070,inactive
Apc (APC-like),DRSC14114,1.01e5,4650,inactive
CR10032 (pseudo),DRSC12499,1.33e5,6198,inactive
Srr (Serine racemase),DRSC16382,1.22e5,5497,inactive
Or85e (retired record),DRSC16768,1.34e5,5707,inactive
Ns3 (Nucleostemin 3),DRSC18607,1769,1096,inactive
oxt (peptide O-xylosyltransferase),DRSC08522,68460,3301,inactive
CtBP (C-terminal Binding Protein),DRSC16617,62918,3892,inactive
Rad23,DRSC17167,1738,888,inactive
CG15201,DRSC19648,1.41e5,6366,inactive
CG15617,DRSC06570,1.48e5,4788,inactive
CG32695,DRSC17975,1.14e5,5455,inactive
pasha (partner of drosha),DRSC15295,2063,940,inactive

Reformatted: results already given
{"target": "CG8569", "DRSC id": "DRSC07214", "E2F firefly, rep 1": 2751, "Renilla normaliser, rep 1": 208, "Call": "inactive"}
{"target": "Ufd4 (Ubiquitin fusion-degradation 4-like)", "DRSC id": "DRSC02871", "E2F firefly, rep 1": 1.51e5, "Renilla normaliser, rep 1": 5469, "Call": "inactive"}
{"target": "CG30050", "DRSC id": "DRSC05342", "E2F firefly, rep 1": 1.26e5, "Renilla normaliser, rep 1": 4691, "Call": "inactive"}
{"target": "Lcp65Ac", "DRSC id": "DRSC11210", "E2F firefly, rep 1": 1.03e5, "Renilla normaliser, rep 1": 3943, "Call": "inactive"}
{"target": "CG15172", "DRSC id": "DRSC02473", "E2F firefly, rep 1": 1.01e5, "Renilla normaliser, rep 1": 4190, "Call": "inactive"}
{"target": "hmw (hemingway)", "DRSC id": "DRSC16277", "E2F firefly, rep 1": 71363, "Renilla normaliser, rep 1": 3159, "Call": "inactive"}
{"target": "CG18268 + CG3014", "DRSC id": "DRSC15319", "E2F firefly, rep 1": 1.33e5, "Renilla normaliser, rep 1": 6074, "Call": "inactive"}
{"target": "Pgam5 (Phosphoglycerate mutase 5)", "DRSC id": "DRSC18551", "E2F firefly, rep 1": 1756, "Renilla normaliser, rep 1": 988, "Call": "inactive"}
{"target": "Syx16 (Syntaxin 16)", "DRSC id": "DRSC20507", "E2F firefly, rep 1": 1.58e5, "Renilla normaliser, rep 1": 5536, "Call": "inactive"}
{"target": "CG7251", "DRSC id": "DRSC03039", "E2F firefly, rep 1": 91595, "Renilla normaliser, rep 1": 3661, "Call": "inactive"}
{"target": "CG32726", "DRSC id": "DRSC17521", "E2F firefly, rep 1": 82163, "Renilla normaliser, rep 1": 2419, "Call": "inactive"}

Further entries follow.
target,DRSC id,"E2F firefly, rep 1","Renilla normaliser, rep 1",Call
CG15117,DRSC06539,81380,3905,inactive
stops (slow termination of phototransduction),DRSC15095,1.10e5,6342,inactive
stops (slow termination of phototransduction),DRSC15096,1.10e5,5473,inactive
stops (slow termination of phototransduction),DRSC15097,1.20e5,6691,inactive
CG6048,DRSC18398,1.09e5,6101,inactive
Dif (Dorsal-related immunity factor),DRSC03316,1.00e5,4571,inactive
CG10019,DRSC00279,1.31e5,4857,inactive
CG14440,DRSC17933,84176,4432,inactive
CG1698,DRSC06640,2891,179,inactive
CG12316,DRSC09879,66548,3945,inactive
"DCTN3-p24 (Dynactin 3, p24 subunit)",DRSC04592,69947,3678,inactive
CG33969,DRSC11777,1.29e5,6211,inactive
Ranbp16,DRSC20160,1.44e5,5644,inactive
CG11109,DRSC11633,83273,3857,inactive
BuGZ (Bub3 interacting GLEBS and Zinc finger domain protein),DRSC02642,68225,3522,inactive
BuGZ (Bub3 interacting GLEBS and Zinc finger domain protein),DRSC02643,1.02e5,4031,inactive
CG14089,DRSC10093,1.53e5,6576,inactive
CG12784,DRSC14539,1.19e5,7292,inactive
Arf1 (ADP ribosylation factor 1),DRSC11606,72469,3408,inactive
CG11585,DRSC19410,2.19e5,7240,inactive
cola + swif,DRSC06826,1.32e5,5106,inactive
GluRIIC (Glutamate receptor IIC),DRSC00642,85939,3218,inactive
dve (defective proventriculus),DRSC04680,99749,4013,inactive
CG18130,DRSC19790,1.34e5,5701,inactive
robo2 (roundabout 2),DRSC00377,1.54e5,5686,inactive
robo2 (roundabout 2),DRSC00378,1.70e5,5864,inactive
robo2 (roundabout 2),DRSC00686,1.68e5,5747,inactive
robo2 (roundabout 2),DRSC00691,75754,3055,inactive
mRpS11 (mitochondrial ribosomal protein S11),DRSC15732,1.29e5,5538,inactive
lms (lateral muscles scarcer),DRSC06387,98495,4271,inactive
maf-S,DRSC07348,87977,4019,inactive
fuss (fussel),DRSC17200,1.14e5,5950,inactive
CG43066,DRSC06927,1.46e5,4659,inactive
CG8303,DRSC07140,1.40e5,4428,inactive
EMC4 (ER membrane protein complex subunit 4),DRSC11638,1.55e5,7840,inactive
CG15546,DRSC15084,1.23e5,6793,inactive
CG34337,DRSC18435,1.14e5,5919,inactive
CG30291,DRSC03842,1.24e5,5122,inactive
CG10321,DRSC04061,54282,2750,inactive
CG4783,DRSC15644,47457,3637,inactive
s-cup (stanley-cup),DRSC06277,85788,4295,inactive
s-cup (stanley-cup),DRSC06278,99384,3980,inactive
ND-B15 (NADH dehydrogenase (ubiquinone) B15 subunit),DRSC06199,1.05e5,4228,inactive
CG15445,DRSC20517,1.41e5,5515,inactive
CG11317,DRSC14299,1636,916,inactive
CG34451,DRSC09388,1.59e5,3624,inactive
CG34451,DRSC09389,1.41e5,4060,inactive
png (pan gu),DRSC18582,77422,4535,inactive
tefu (telomere fusion),DRSC16060,99251,5712,inactive
CG13155,DRSC06280,95102,4150,inactive
BCL7-like,DRSC17729,8221,804,inactive
CG15393 (retired record),DRSC00407,1.62e5,5668,inactive
fra (frazzled),DRSC07621,96622,4038,inactive
CG33093,DRSC15775,50586,3168,inactive
Mlc1 (Myosin alkali light chain 1),DRSC16740,97042,5657,inactive
"ATPsynG (ATP synthase, subunit G)",DRSC02928,1.37e5,4766,inactive
CG11980,DRSC14456,69430,3475,inactive
chinmo (Chronologically inappropriate morphogenesis),DRSC00292,80500,3860,inactive
chinmo (Chronologically inappropriate morphogenesis),DRSC00485,1.36e5,4763,inactive
chinmo (Chronologically inappropriate morphogenesis),DRSC00509,1.56e5,5863,inactive
Corin,DRSC06818,1.46e5,5097,inactive
CG15771,DRSC18077,76932,4305,inactive
Sting,DRSC06615,1.35e5,4892,inactive
cv-2 (crossveinless 2),DRSC03861,1.21e5,4698,inactive
cv-2 (crossveinless 2),DRSC04261,99503,4268,inactive
Ho (Heme oxygenase),DRSC14939,78231,3686,inactive
